Source: the supplement of paper PMC10849652
The list shows a part of the results.

The chains behind the UniProt entries cited, without tags or fusion partners. Where a name states a change or a piece, a line headed by the entry shows the natural chain unless it says otherwise.
UniProt P56377: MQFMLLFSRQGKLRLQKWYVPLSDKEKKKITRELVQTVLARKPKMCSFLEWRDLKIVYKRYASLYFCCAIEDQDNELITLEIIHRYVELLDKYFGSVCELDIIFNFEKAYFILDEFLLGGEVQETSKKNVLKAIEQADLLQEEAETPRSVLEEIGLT
UniProt Q9BVK2: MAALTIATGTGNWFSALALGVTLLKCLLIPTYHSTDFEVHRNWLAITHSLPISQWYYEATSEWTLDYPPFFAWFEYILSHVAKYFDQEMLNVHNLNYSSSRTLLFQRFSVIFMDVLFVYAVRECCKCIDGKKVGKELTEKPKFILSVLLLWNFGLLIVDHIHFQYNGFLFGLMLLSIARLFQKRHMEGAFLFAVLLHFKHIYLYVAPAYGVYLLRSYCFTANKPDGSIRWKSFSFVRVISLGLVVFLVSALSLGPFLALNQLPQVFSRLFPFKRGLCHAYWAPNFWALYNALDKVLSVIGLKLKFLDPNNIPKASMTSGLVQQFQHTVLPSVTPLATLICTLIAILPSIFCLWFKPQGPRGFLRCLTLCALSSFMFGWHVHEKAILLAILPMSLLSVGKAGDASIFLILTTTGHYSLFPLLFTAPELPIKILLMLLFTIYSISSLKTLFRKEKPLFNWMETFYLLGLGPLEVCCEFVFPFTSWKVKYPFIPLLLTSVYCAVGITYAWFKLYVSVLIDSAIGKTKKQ
UniProt P15144: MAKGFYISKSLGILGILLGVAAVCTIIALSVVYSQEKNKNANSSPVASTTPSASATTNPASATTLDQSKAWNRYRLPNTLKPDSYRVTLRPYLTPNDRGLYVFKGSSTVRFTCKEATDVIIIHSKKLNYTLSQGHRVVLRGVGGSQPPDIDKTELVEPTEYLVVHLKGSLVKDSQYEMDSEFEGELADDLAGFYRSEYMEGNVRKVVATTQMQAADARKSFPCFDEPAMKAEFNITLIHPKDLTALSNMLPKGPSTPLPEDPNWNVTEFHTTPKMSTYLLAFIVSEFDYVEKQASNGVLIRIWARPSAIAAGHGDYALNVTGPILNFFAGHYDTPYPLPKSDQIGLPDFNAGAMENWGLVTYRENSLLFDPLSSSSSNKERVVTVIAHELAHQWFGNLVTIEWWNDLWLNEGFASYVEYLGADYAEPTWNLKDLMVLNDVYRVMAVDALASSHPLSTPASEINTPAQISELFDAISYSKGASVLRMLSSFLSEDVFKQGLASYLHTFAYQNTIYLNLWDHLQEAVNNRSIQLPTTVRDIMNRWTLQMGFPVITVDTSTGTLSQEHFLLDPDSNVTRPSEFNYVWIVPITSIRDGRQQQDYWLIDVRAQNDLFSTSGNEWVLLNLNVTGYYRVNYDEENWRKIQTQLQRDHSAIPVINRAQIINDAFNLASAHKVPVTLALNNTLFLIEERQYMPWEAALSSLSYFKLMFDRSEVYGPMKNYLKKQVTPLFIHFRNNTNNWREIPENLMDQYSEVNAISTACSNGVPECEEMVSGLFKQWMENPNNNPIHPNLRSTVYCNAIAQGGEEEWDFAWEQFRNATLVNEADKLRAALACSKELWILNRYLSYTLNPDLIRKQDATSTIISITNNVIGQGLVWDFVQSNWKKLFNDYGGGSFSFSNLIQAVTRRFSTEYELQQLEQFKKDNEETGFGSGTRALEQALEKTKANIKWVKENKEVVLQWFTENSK
UniProt P39687: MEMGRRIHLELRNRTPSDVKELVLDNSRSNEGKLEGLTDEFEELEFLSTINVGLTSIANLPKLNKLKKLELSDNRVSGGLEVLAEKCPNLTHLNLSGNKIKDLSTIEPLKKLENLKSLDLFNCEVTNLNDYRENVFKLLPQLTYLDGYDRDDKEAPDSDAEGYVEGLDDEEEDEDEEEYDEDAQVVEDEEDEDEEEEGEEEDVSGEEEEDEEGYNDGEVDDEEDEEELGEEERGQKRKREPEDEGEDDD
UniProt Q9Y672: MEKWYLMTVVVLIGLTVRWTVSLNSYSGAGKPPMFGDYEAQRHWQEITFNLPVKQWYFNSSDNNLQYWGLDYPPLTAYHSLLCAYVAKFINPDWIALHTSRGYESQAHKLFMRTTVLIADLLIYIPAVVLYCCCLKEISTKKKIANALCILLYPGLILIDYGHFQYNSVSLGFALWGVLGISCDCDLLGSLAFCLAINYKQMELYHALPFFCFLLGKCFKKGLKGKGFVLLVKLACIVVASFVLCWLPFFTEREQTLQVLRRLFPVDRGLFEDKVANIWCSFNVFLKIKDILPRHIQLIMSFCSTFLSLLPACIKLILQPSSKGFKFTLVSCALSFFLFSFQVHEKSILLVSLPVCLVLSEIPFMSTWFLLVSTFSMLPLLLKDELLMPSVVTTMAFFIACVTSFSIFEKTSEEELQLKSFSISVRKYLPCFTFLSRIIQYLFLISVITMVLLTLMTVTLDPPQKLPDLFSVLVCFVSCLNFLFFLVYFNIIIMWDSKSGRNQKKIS
UniProt Q9BXX2: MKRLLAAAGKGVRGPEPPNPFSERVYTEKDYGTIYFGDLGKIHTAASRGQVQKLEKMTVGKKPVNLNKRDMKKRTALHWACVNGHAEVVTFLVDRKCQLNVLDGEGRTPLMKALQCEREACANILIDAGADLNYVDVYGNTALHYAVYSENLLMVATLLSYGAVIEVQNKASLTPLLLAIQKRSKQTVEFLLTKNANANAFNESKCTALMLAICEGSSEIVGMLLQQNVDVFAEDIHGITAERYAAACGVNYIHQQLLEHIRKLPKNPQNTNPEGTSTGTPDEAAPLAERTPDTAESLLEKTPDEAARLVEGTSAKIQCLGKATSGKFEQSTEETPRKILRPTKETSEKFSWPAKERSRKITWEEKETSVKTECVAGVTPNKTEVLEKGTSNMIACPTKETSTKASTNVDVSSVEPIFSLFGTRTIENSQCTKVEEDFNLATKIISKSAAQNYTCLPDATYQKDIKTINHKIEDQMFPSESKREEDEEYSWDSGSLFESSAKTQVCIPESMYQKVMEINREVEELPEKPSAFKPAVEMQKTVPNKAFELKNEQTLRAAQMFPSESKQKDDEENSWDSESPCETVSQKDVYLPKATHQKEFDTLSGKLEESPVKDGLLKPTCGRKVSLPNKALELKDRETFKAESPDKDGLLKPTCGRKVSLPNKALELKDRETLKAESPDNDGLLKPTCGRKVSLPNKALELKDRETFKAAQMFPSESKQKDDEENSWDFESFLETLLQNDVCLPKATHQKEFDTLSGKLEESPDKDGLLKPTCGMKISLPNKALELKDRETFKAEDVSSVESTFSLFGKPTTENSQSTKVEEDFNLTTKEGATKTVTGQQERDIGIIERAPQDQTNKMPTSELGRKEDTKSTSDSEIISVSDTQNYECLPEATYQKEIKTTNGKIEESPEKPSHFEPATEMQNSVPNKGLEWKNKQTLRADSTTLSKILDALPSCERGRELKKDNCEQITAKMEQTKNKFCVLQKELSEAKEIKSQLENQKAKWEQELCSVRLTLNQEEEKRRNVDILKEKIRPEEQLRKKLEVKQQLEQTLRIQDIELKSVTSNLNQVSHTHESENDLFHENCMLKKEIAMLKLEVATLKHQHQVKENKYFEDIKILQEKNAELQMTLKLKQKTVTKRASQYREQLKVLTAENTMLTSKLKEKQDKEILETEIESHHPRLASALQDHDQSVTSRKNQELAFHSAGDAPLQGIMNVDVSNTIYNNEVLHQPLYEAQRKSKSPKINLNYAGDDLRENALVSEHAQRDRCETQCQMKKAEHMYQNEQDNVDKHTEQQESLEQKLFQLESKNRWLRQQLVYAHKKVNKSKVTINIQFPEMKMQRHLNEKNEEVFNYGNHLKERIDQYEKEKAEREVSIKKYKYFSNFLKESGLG
UniProt O94973, whole entry, looked up: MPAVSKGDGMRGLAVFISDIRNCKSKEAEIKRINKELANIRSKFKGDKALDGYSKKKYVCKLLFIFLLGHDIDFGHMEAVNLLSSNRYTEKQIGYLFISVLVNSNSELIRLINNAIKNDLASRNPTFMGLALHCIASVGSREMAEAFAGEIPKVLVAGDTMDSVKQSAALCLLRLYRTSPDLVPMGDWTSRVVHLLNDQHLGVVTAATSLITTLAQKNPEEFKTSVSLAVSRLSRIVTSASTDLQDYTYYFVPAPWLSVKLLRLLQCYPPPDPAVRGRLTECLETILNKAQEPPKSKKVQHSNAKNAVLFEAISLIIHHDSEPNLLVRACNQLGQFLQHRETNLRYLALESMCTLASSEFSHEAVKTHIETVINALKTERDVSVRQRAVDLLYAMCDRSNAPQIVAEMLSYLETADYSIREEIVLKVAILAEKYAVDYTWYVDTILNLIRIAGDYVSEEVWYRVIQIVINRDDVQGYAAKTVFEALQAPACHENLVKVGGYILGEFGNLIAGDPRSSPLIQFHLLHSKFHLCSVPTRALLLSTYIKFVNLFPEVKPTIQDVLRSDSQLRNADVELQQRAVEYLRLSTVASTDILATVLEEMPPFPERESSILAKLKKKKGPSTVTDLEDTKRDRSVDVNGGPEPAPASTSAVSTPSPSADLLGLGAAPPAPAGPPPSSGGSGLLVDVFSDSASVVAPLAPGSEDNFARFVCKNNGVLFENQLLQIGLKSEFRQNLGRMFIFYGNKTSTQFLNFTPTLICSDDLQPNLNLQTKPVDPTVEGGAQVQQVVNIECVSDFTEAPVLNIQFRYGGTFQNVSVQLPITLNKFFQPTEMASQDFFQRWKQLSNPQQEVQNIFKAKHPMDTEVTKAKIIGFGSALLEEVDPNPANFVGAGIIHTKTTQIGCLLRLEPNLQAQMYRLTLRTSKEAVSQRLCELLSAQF
UniProt Q9Y673: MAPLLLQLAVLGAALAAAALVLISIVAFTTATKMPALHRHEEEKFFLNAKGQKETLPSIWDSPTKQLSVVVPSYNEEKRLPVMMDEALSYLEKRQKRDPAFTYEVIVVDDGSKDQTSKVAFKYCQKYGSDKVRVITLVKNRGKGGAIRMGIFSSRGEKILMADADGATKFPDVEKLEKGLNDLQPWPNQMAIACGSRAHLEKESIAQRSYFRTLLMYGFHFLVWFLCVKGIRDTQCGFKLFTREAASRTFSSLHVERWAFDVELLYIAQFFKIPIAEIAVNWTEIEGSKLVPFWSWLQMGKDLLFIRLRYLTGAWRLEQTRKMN
UniProt Q92572: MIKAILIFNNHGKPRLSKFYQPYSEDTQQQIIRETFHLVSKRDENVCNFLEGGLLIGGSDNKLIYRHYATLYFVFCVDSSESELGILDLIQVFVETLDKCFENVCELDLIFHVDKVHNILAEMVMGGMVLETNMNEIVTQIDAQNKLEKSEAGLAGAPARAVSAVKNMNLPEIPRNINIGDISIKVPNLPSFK
UniProt Q9C0C7: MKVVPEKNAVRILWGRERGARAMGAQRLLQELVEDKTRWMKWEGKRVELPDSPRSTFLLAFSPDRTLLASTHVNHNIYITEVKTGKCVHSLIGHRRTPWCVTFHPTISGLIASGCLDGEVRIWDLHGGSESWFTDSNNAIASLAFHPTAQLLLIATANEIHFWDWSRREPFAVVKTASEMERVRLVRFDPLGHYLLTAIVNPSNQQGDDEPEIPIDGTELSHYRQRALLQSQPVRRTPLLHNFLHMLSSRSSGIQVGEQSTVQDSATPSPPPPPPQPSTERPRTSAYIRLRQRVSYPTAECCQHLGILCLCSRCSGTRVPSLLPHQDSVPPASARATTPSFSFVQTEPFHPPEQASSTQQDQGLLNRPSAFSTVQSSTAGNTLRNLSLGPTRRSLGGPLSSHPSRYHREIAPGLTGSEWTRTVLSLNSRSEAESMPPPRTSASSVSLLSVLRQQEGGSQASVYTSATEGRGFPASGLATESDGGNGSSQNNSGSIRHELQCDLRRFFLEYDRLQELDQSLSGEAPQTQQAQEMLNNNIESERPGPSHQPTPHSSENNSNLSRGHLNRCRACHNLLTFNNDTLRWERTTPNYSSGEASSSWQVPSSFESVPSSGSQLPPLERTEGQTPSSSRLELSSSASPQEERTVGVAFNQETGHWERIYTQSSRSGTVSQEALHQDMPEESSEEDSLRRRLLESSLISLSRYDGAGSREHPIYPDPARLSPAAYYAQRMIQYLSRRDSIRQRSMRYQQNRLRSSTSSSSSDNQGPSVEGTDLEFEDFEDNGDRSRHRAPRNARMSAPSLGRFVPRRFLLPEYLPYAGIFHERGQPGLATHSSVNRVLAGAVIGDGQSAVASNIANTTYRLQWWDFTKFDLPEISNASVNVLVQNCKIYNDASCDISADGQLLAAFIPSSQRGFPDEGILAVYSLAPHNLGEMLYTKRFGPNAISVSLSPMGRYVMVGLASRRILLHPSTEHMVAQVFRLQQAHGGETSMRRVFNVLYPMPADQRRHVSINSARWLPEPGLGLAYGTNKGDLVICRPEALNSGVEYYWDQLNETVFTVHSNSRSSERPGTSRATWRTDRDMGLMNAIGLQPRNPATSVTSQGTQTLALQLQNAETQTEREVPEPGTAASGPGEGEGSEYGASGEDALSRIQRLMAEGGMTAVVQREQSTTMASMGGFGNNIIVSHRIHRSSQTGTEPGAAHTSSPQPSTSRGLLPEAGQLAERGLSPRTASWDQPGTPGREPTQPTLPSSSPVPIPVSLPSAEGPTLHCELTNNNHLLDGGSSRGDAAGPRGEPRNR

How the values were obtained:
Assay in all cases: log2 fold change, soluble protein after heating vs DMSO (PISA); higher = thermal stabilisation; K562 lysate, 10 uM; active = over 0.2 and 3.5 SD of the protein, either way, in both replicates (recomputed)
alvocidib = compound: CN1CC[C@H](c2c(O)cc(O)c3c(=O)cc(-c4ccccc4Cl)oc23)[C@H](O)C1 [alvocidib]
Method in brief: (§1)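 A 30 min treatment with 10 μM compound was applied to crude K562 extract at 1 mg/mL protein in PBS pH 7.4 with 1 mM MgCl2. Heating for 3 min spanned 48°C-58°C, after which aliquots were pooled, adjusted to 0.5% NP-40 at 4°C and spun at 21,000xg for 90 min. TMTpro 16plex LC-MS/MS of the supernatant, with channel sums equalised, gave values recorded as log-two fold change in thermal stability against solvent controls, from duplicates.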

Tubastatin A = compound: CN1CCc2c(c3ccccc3n2Cc2ccc(C(=O)NO)cc2)C1 [Tubastatin A]
Method in brief: as §1

[1] = compound: CNC(=O)C1=CC=CC=C1NC2=NC(=NC=C2Cl)NC3=C(C=C(C=C3)N4CCOCC4)OC
Method in brief: as §1

defactinib = compound: CNC(=O)c1ccc(Nc2ncc(C(F)(F)F)c(NCc3nccnc3N(C)S(C)(=O)=O)n2)cc1 [defactinib]
Method in brief: as §1

[2] = compound: CNc1nc(-c2ccc3c(N)n[nH]c3c2)cc(N2C[C@@H](C(=O)NC3CCCCC3)CC[C@H]2C)n1
Method in brief: as §1

encorafenib = compound: COC(=O)N[C@@H](C)CNc1nccc(-c2cn(C(C)C)nc2-c2cc(Cl)cc(NS(C)(=O)=O)c2F)n1 [encorafenib]
Method in brief: as §1

[3] = compound: COC(=O)[C@H](CCSC)NC(=O)C1=C(C=C(C=C1)NC[C@H](CS)N)C2=CC=CC=C2
Method in brief: as §1

alisertib = compound: COc1cc(Nc2ncc3c(n2)-c2ccc(Cl)cc2C(c2c(F)cccc2OC)=NC3)ccc1C(=O)O [alisertib]
Method in brief: as §1

[4] = compound: COc1cc2nc(-c3cc(F)ccc3O)nc(N[C@@H]3CNC[C@H]3C(C)(C)O)c2cc1OC
Method in brief: as §1

gefitinib = compound: COc1cc2ncnc(Nc3ccc(F)c(Cl)c3)c2cc1OCCCN1CCOCC1 [gefitinib]
Method in brief: as §1

Measured: log2 fold change

AP1S2 isoform 2 (UniProt P56377)
inactive: alvocidib -0.107 | Tubastatin A -0.036 | [1] -0.017 | defactinib 0.022 | [2] -0.146 | encorafenib 0.089 | [3] -0.01 | alisertib 0.045 | [4] -0.002 | gefitinib 0.034

ALG8 (UniProt Q9BVK2)
inactive: alvocidib 0.004 | Tubastatin A -0.118 | [1] -0.007 | defactinib 0.001 | [2] -0.012 | encorafenib 0.04 | [3] -0.09 | alisertib 0.076 | [4] -0.019 | gefitinib 0.103

ALG9 isoform 3 (UniProt Q9H6U8)
inactive: alvocidib -0.063 | Tubastatin A -0.022 | [1] -0.055 | defactinib -0.008 | [2] 0.009 | encorafenib -0.008 | [3] 0.032 | alisertib 0.012 | [4] 0.019 | gefitinib -0.041

ANK1 isoform 14 (UniProt P16157)
inactive: alvocidib 0.03 | Tubastatin A -0.083 | [1] 0.036 | defactinib 0.008 | [2] -0.019 | encorafenib 0.018 | [3] 0.104 | alisertib -0.012 | [4] 0.009 | gefitinib 0.006

ALDH4A1 (UniProt P30038)
inactive: alvocidib 0.017 | Tubastatin A -0.05 | [1] 0.026 | defactinib -0.025 | [2] 0.067 | encorafenib -0.036 | [3] 0.114 | alisertib -0.03 | [4] -0.012 | gefitinib -0.001

ANXA2 isoform 2 (UniProt P07355)
inactive: alvocidib 0.012 | Tubastatin A 0.013 | [1] -0.012 | defactinib -0.011 | [2] -0.026 | encorafenib -0.03 | [3] -0.007 | alisertib 0.002 | [4] 0.003 | gefitinib -0.009

ALG2 (UniProt Q9H553)
inactive: alvocidib 0.07 | Tubastatin A -0.061 | [1] 0.011 | defactinib -0.077 | [2] 0.097 | encorafenib -0.065 | [3] -0.058 | alisertib 0.04 | [4] 0.049 | gefitinib 0.026

ANAPC4 isoform 3 (UniProt Q9UJX5)
inactive: alvocidib -0.004 | Tubastatin A -0.034 | [1] 0.044 | defactinib 0.023 | [2] 0.03 | encorafenib -0.017 | [3] -0.056 | alisertib -0.01 | [4] 0.012 | gefitinib 0.007

Quoted at random: two entries already listed
ALG2 (UniProt Q9H553)
inactive: alvocidib 0.07 | Tubastatin A -0.061 | [1] 0.011 | defactinib -0.077 | [2] 0.097 | encorafenib -0.065 | [3] -0.058 | alisertib 0.04 | [4] 0.049 | gefitinib 0.026

ANAPC4 isoform 3 (UniProt Q9UJX5)
inactive: alvocidib -0.004 | Tubastatin A -0.034 | [1] 0.044 | defactinib 0.023 | [2] 0.03 | encorafenib -0.017 | [3] -0.056 | alisertib -0.01 | [4] 0.012 | gefitinib 0.007

Next records:

ALDH6A1 (UniProt Q02252)
inactive: alvocidib -0.044 | [1] 0.106 | defactinib 0.018 | [2] 0.091 | encorafenib -0.015 | [3] 0.103 | alisertib 0.086 | [4] 0.061 | gefitinib 0.098
active: Tubastatin A 0.43

ANKRD52 (UniProt Q8NB46)
inactive: alvocidib -0.002 | Tubastatin A -0.132 | [1] -0.003 | defactinib 0.076 | [2] 0.014 | encorafenib 0.047 | [3] 0.11 | alisertib 0.005 | [4] 0 | gefitinib 0.039

AMFR (UniProt Q9UKV5)
inactive: alvocidib -0.143 | Tubastatin A -0.071 | [1] -0.049 | defactinib 0.124 | [2] -0.064 | encorafenib 0.085 | [3] 0.083 | alisertib 0.094 | gefitinib 0.076

ANPEP (UniProt P15144)
inactive: alvocidib 0.002 | Tubastatin A 0.063 | [1] 0 | defactinib 0.006 | [2] 0.001 | encorafenib 0.069 | [3] -0.124 | alisertib -0.082 | [4] 0.047 | gefitinib 0.002

AP3M1 (UniProt Q9Y2T2)
inactive: alvocidib 0.001 | Tubastatin A -0.003 | [1] 0.042 | defactinib 0.046 | [2] 0.023 | encorafenib 0.025 | [3] -0.036 | alisertib -0.022 | [4] 0.006 | gefitinib 0.016

ANP32A (UniProt P39687)
inactive: alvocidib -0.039 | Tubastatin A 0.027 | [1] -0.006 | defactinib 0.016 | [2] -0.056 | encorafenib -0.024 | [3] -0.048 | alisertib 0.018 | [4] -0.014 | gefitinib -0.007

AMPD3 isoform 4 (UniProt Q01432)
inactive: alvocidib 0.012 | Tubastatin A 0.027 | [1] 0.015 | defactinib 0.011 | [2] -0.034 | encorafenib -0.013 | [3] 0.103 | alisertib 0.008 | [4] -0.068 | gefitinib 0.012

ALG6 (UniProt Q9Y672)
inactive: alvocidib -0.043 | Tubastatin A 0.059 | [1] 0.034 | defactinib 0.034 | [2] 0.131 | encorafenib 0.091 | [3] -0.044 | alisertib -0.003 | [4] 0.032 | gefitinib -0.052

AP3B2 isoform 4 (UniProt Q13367)
inactive: alvocidib -0.008 | Tubastatin A -0.033 | [1] 0.023 | defactinib 0.003 | [2] 0.025 | encorafenib 0.05 | [3] -0.01 | alisertib 0.014 | [4] -0.018 | gefitinib 0.02

ALDH18A1 (UniProt P54886)
inactive: alvocidib -0.005 | Tubastatin A -0.049 | [1] 0.005 | defactinib 0.006 | [2] -0.01 | encorafenib -0.009 | [3] 0.062 | alisertib 0.01 | [4] 0.017 | gefitinib 0.001

ANKRD30B (UniProt Q9BXX2)
inactive: alvocidib -0.307 | Tubastatin A 0.007 | [1] -0.01 | defactinib -0.155 | [2] 0.284 | encorafenib -0.113 | [3] 0.164 | alisertib -0.002 | [4] -0.067 | gefitinib -0.036

AP2A2 isoform 2 (UniProt O94973)
inactive: alvocidib -0.016 | Tubastatin A -0.047 | [1] -0.004 | defactinib -0.005 | [2] -0.025 | encorafenib 0.022 | [3] -0.017 | alisertib -0.039 | [4] 0.014 | gefitinib 0.011

ALDH5A1 isoform 2 (UniProt P51649)
inactive: alvocidib 0.063 | Tubastatin A 0.048 | [1] 0.007 | defactinib 0.016 | [2] -0.02 | encorafenib -0.028 | [3] 0.077 | alisertib 0.001 | [4] 0.006 | gefitinib -0.042

ALG5 (UniProt Q9Y673)
inactive: alvocidib -0.012 | Tubastatin A 0.084 | [1] -0.048 | defactinib -0.018 | [2] -0.001 | encorafenib 0.031 | [3] 0.004 | alisertib -0.01 | [4] 0.042 | gefitinib 0.075

AP1B1 (UniProt Q10567)
inactive: alvocidib 0.011 | Tubastatin A -0.002 | [1] 0.017 | defactinib 0.008 | [2] 0.009 | encorafenib 0.008 | [3] 0.011 | alisertib -0.009 | [4] 0 | gefitinib 0.006

ANKRD49 (UniProt Q8WVL7)
inactive: alvocidib -0.033 | Tubastatin A -0.02 | [1] 0.01 | defactinib 0.014 | [2] 0.028 | encorafenib 0.002 | [3] 0.002 | alisertib -0.006 | [4] -0.042 | gefitinib -0.024

ALMS1 (UniProt Q8TCU4)
inactive: alvocidib -0.083 | Tubastatin A 0.021 | [1] 0.02 | defactinib 0.169 | [2] 0.126 | encorafenib 0.065 | [3] 0.04 | alisertib -0.02 | [4] 0.001 | gefitinib -0.174

AP3S1 (UniProt Q92572)
inactive: alvocidib 0.001 | Tubastatin A -0.027 | [1] 0.008 | defactinib -0.002 | [2] 0.061 | encorafenib 0.119 | [3] -0.137 | alisertib 0.008 | [4] 0.04 | gefitinib 0.022

AMBRA1 isoform 5 (UniProt Q9C0C7)
inactive: alvocidib -0.1 | Tubastatin A 0.073 | [1] 0.057 | defactinib 0.027 | [2] 0.066 | encorafenib 0.067 | [3] 0.049 | alisertib 0.002 | [4] -0.011 | gefitinib -0.016
